# PubChem BioAssay AID504791, Drosophila RNAi Screening Center | 2011
# Test: 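Genes of the fly required for silencing by miRNA, siRNA or endo-siRNA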 (primary screen)
# Cells: Drosophila S2-derived reporter cells
# Knock-down reagent: long dsRNA against Drosophila genes, about 150-250 ng dsRNA per well (siRNA assay); about 80-120 ng (miRNA assay)
# Timing: about 5 days (siRNA assay); about 4 days (miRNA assay)
# Treatment: copper sulfate induction of reporters: 25 µM (siRNA assay); 200 mM stated (miRNA assay), 1-2 days before reading
# Read-out: 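Dual luciferase assay: Renilla to firefly signal ratio in each well, scaled to the mean ratio of its plate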
# Hit rule: 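First-pass picks had plate-scaled ratios over 1.5 for the siRNA assay, over 1.6 for the miRNA assay, or under 0.6; two distinct dsRNAs had to score alike on retest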
# The screen tested about 23,000 reagents; this is an unselected part of those with a known target gene and a result. In the full data, 199 (0.86%) were called active. 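Plate-scaled ratios behind the calls are not deposited; printed light signals are raw; many rows marked increased or decreased are still called inactive.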 Not stated in the record: the direction of the score.
The opening 3 entries as a preview:
target gene,DRSC id,stable siRNA reporter change,miRNA reporter change,"stable assay Renilla, run 1 (luminescence)","stable assay firefly, run 1 (luminescence)",outcome
CG8414,DRSC07168,,,6614,3.42e5,inactive
CR31822,DRSC01510,,,5000,3.42e5,inactive
CG6865,DRSC10732,,,8746,4.61e5,inactive

The listing, from the first entry:
target gene,DRSC id,stable siRNA reporter change,miRNA reporter change,"stable assay Renilla, run 1 (luminescence)","stable assay firefly, run 1 (luminescence)",outcome
CG8414,DRSC07168,,,6614,3.42e5,inactive
CR31822,DRSC01510,,,5000,3.42e5,inactive
CG6865,DRSC10732,,,8746,4.61e5,inactive
CR31846 (retired record),DRSC22272,,,9747,6.58e5,inactive
Best4,DRSC10792,,,8348,3.74e5,inactive
Cyp4ac2,DRSC03303,,,7024,3.63e5,inactive
CG32487,DRSC21745,,,8552,4.47e5,inactive
CG13876,DRSC08346,,,6439,3.75e5,inactive
Gr21a,DRSC00366,,,9054,4.11e5,inactive
Pgi,DRSC07507,,,6939,3.80e5,inactive
Rok,DRSC20277,,,7599,5.38e5,inactive
Rok,DRSC23348,,,4060,3.79e5,inactive
mth,DRSC08725,,,8226,2.97e5,inactive
AnxB10,DRSC20677,,,7411,3.68e5,inactive
Ir48a,DRSC05301,,,5519,3.51e5,inactive
bab2,DRSC08150,,,4987,2.91e5,inactive
bab2,DRSC08380,,,5156,2.69e5,inactive
CG6712,DRSC02981,,,11764,1.66e6,inactive
CG6712,DRSC21690,,,8202,3.70e5,inactive
CG34444,DRSC06435,,,6063,5.14e5,inactive
thoc6,DRSC10528,,,7019,3.70e5,inactive
CG9849,DRSC04573,,,6610,4.08e5,inactive
Pex5,DRSC18552,,,7818,4.27e5,inactive
Scgalpha,DRSC03076,,,7673,4.55e5,inactive
krimp,DRSC06578,,,7618,3.33e5,inactive
Sh3beta,DRSC11001,,,7586,3.88e5,inactive
Sh3beta,DRSC22053,,,8202,3.84e5,inactive
bnk,DRSC16912,,,6866,4.22e5,inactive
CG10909,DRSC14282,,,7027,3.69e5,inactive
CG14275,DRSC02379,,,6411,3.49e5,inactive
sol,DRSC20587,,,5983,5.51e5,inactive
CG7025,DRSC03002,,,8130,5.82e5,inactive
Pp4-19C,DRSC20559,,reporter ratio lowered past the hit cutoff,5944,5.39e5,inactive
Pp4-19C,DRSC21251,,,6706,5.24e5,inactive
Pp4-19C,DRSC23319,reporter ratio raised past the hit cutoff,,3544,63013,inactive
Pp4-19C,DRSC26053,,reporter ratio lowered past the hit cutoff,,,inactive
